Results published in US20110246078A1, “MITOCHONDRIA KATP ION CHANNEL AS A DRUG TARGET FOR PREVENTING LIVER DISEASES AND METHODS TO SCREEN MITOCHONDRIA KATP MODULATORS” (priority 2010, published 2011).

Test system: pinacidil induced DMR signal in HepG2C3A cells
Assay: Label-free RWG biosensor DMR assay, modulation of the pinacidil induced DMR signal
Format: cell-based, human
Details: pre-incubation with compound, pinacidil 40 μM
Description: Transfection of siRNAs was performed using N-TER Nanoparticle siRNA Transfection System (Cat#N2913) from Sigma-Aldrich Inc. following the manufacturer's instructions. Briefly, 5000 cells were plated in each well of Epic 384-well plates. Cells were transfected with 50 nM siRNA the next day and incubated in siRNA containing medium for 24 hrs before replaced with fresh cell culture medium. Epic cell assay was performed 48 hours after transfection.
Epic® wavelength interrogation system (Corning Inc., Corning, N.Y.) was used for whole cell sensing. This system consists of a temperature-control unit, an optical detection unit, and an on-board liquid handling unit with robotics. The detection unit is centered on integrated fiber optics, and enables kinetic measures of cellular responses with a time interval of ˜15sec. […]
For biosensor cellular assays, compound solutions were made by diluting the stored concentrated solutions with the HBSS (1× Hanks balanced salt solution, plus 20 mM Hepes, pH 7.1), and transferred into a 384well polypropylene compound storage plate to prepare a compound source plate. […] Both the cell assay plate and the compound source plate(s) were then incubated in the hotel of the reader system. After incubation the baseline wavelengths of all biosensors in the cell assay microplate were recorded and normalized to zero. […]

Cc1cnc(C(=O)NCCc2ccc(S(=O)(=O)NC(=O)NC3CCCCC3)cc2)cn1 [glipizide]
effect on the pinacidil induced DMR signal: dose-dependently inhibited
